# Library screen at single concentrations

Amino acid sequences for entries named in this document (tags omitted). Residues count along the entry.
UniProt Q4DA54, 1-478: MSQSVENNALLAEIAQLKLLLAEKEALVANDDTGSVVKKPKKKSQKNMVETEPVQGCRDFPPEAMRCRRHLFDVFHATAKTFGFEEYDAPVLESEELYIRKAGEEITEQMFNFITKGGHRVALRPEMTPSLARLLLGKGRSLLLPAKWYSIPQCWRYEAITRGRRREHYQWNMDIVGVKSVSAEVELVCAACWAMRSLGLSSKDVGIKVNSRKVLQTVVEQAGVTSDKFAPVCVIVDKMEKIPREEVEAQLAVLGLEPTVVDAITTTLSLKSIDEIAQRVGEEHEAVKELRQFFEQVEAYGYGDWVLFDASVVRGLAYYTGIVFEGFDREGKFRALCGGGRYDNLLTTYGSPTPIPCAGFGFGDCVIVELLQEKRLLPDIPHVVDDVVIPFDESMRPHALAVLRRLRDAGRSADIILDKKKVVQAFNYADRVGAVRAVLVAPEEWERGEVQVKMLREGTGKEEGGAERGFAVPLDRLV

Data taken from ChEMBL document CHEMBL3988442, “University of Dundee, Small-Polar-MMV Screening Library” (2021).

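Enzyme assay of histidyl-tRNA synthetase; the read-out is not stated. Target: Histidine-tRNA ligase, Trypanosoma cruzi CL Brener (UniProt Q4DA54). Compounds at 30 µM. The record gives no direction; compounds that gave an IC50 in retests scored well above the rest, so higher reads as stronger inhibition. Of about 69,000 compounds tested this way, about 31 (0.045%) reached 50% or more in at least one test.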

Values are the deposited “Percent Effect”, in %.
How 0% and 100% were set is not recorded. Most values in the screen are low, and negative values occur.
Compounds were drawn at random from those tested, without regard to their results.

With NC(=O)NC(=O)CNC1(c2ccc(Cl)cc2)CCC1 the screen gave 2.484%.
With O=C(NCCCN1CCc2ccccc2C1)c1ccccc1Br the screen gave 5.085%.
With CN1CC(NC(=O)Cc2csc(C(C)(C)C)n2)CCC1=O (configuration not stated) the screen gave -3.59%.
With COC(=O)N1CCN(Cc2ccccc2C(C)(C)C#N)CC1 the screen gave 2.597%.
With Cc1ncccc1C(=O)Nc1ccc2ccn(CCN(C)C)c2c1 the screen gave 9.211%.
With c1csc(CN2C[C@H]3CCC[C@@]3(COCC3CCOCC3)C2)n1 the screen gave 9.677%.
With COc1ccc(Br)c(C(=O)NCCNc2ccc(C(F)(F)F)cn2)c1 the screen gave 4.906%.
With Cc1ncc(CNCC(C)O)c2cc(C(=O)c3ccc(Br)cc3)oc12 (configuration not stated) the screen gave 25%.
With CN1CCNCC(Cc2cnc3ccccc3c2)C1 (configuration not stated) the screen gave 4.651%.
With CC(C)c1nc(C2CCCN(C(=O)CN3CCN(C)CC3)C2)no1 (configuration not stated) the screen gave -2.463%.
With CS(=O)(=O)NCc1cnc2n1CCN(Cc1cccs1)CC2 the screen gave 3.509%.
With CCN(CC1CCOC1)C(=O)Nc1ccc(OCC(F)(F)F)nc1 (configuration not stated) the screen gave 6.745%.
With CC1COc2ccccc2N1C(=O)c1ccnc(-n2cncn2)c1 (configuration not stated) the screen gave -1.478%.
With CN(Cc1ccsc1)C(=O)CS(=O)(=O)Cc1ccc(Cl)c(Cl)c1 the screen gave -3.396%.
With COCCO[C@H]1CCN(C(=O)c2ccoc2C)[C@H]1Cc1cnn(C)c1 the screen gave 5.521%.
With NC(=O)C1CCN(CCCc2ccc(C(F)(F)F)cc2)CC1 the screen gave -2.941%.
With Cn1nc2c(cc1=O)CN(Cc1nc(-c3ccco3)no1)CC2 the screen gave -1.695%.
With COc1ccc(CN(C)C(=O)CSc2nnc(N)s2)c(OC)c1OC the screen gave 10%.
With Cc1nccn1CCCNc1ncccc1C#N the screen gave 3.659%.
With CN(Cc1ccco1)[C@@H]1CN(Cc2cccnc2)[C@@H]2CCCO[C@H]12 the screen gave 12.24%.
With CSc1nccn1-c1cccc(C(=O)NCc2nnc(C)n2C)c1 the screen gave 0.7576%.
With Cn1c(CCNC(=O)CC[C@@H]2CCCN3CCCC[C@H]23)n[nH]c1=O the screen gave -0.5236%.
With CCOc1ncccc1NC(=O)NCC(O)c1ccc(OC)cc1 (configuration not stated) the screen gave 6.857%.
With CC(C)(C)OC(=O)N1CCC[C@H](NCc2cc[nH]c2)C1 the screen gave 1.299%.
With CCCc1cc(N2CCCC2Cn2nc(C)cc2C)n2ncnc2n1 (configuration not stated) the screen gave 10.53%.
With CN(C)S(=O)(=O)N1CC[C@]2(O)CCN(CCCc3cccnc3)C[C@@H]2C1 the screen gave 8%.
With CCOCCC(=O)N1Cc2cnc(-c3ccccc3)nc2C1 the screen gave 0.5291%.
With O=C(c1ccccc1)C1CCN(Cc2cc3c(cc2O)CCC3)CC1 the screen gave 6.494%.
With Cc1nn(C)c(C)c1NC(=O)CCn1ncc2ccccc21 the screen gave 0.8696%.
With O=C1Nc2ccccc2/C1=C1\CCCCN1 the screen gave 5.941%.
With CN(Cc1ccc(C#N)cc1)C(=O)c1ccnc(OC2CCC2)c1 the screen gave 4.926%.
With NC(=O)c1ccc(OCCCN2CCC3(CC2)OCCCC3O)cc1 (configuration not stated) the screen gave 1.98%.
With CN1CCCC1CCNC(=O)Nc1ccccc1 (configuration not stated) the screen gave 4.545%.
With COCCCN(C)c1cc(C(F)(F)F)nc(-c2cccnc2)n1 the screen gave 18.33%.
With CN(Cc1nc2ccccc2s1)C1CCCN(c2cccnn2)C1 (configuration not stated) the screen gave 4.523%.
With COc1cc(NC(=O)NC2CC2)ccc1N1CCOC1=O the screen gave 1.63%.
With CCc1ccsc1C(=O)N1CCN(CC(C)O)CC1 (configuration not stated) the screen gave 5.983%.
With COc1c(CNCc2cnn(C)c2)c(C(C)C)nn1C the screen gave 1.141%.
With CCOc1ccc(Cl)cc1C(C(=O)O)N1CCCC1 (configuration not stated) the screen gave 4.04%.
With CCN(C(=O)Nc1nccs1)C(C)c1cccc(O)c1 (configuration not stated) the screen gave 9.914%.
With Cc1nc([C@@H]2C[C@@H]3CCN(C(=O)Cc4ccsc4)C[C@H]3O2)no1 the screen gave 2.732%.
With CNC(=O)NCc1nn(-c2ccccc2)c2c1CCC2 the screen gave 7.647%.
With Cc1nc(COC(=O)c2cccc3c2OCCO3)no1 the screen gave 3.015%.
With CN(C)C(=O)CNC(=O)c1ccc(Cl)cc1F the screen gave 2.174%.

Repeated from the top, 3 entries:

structure,percent effect
NC(=O)NC(=O)CNC1(c2ccc(Cl)cc2)CCC1,2.484%
O=C(NCCCN1CCc2ccccc2C1)c1ccccc1Br,5.085%
CN1CC(NC(=O)Cc2csc(C(C)(C)C)n2)CCC1=O (configuration not stated),-3.59%